Results from patent US11999745B2, “Pharmaceutical compounds” (Heptares Therapeutics Limited, priority 2020, dated 2024).

Tested on: scPCP treated female Lister Hooded rats
Test: Attenuation of sub-chronic PCP-induced deficit in the operant reversal learning task
Type: in vivo, rat
Conditions: mean ± S.E.M (n = 6-9)
Experimental: Investigate the ability of Example 1 (1, 3, 10 and 30 mg/kg, p.o., 1 hour pre-treatment time ptt) to attenuate the disruption of a cognitive task induced by sub-chronic treatment with phencyclidine (scPCP) in female Lister Hooded rats.
Female Lister Hooded rats were used for this experiment. The average weight of rats at the time of testing was 294 g±29 g. Rats were housed in groups of 3-5 under standard laboratory conditions under a 12 hr light: dark cycle (lights on at 0700 hr), and food restricted to 90% of free-feeding bodyweight (12 g of food per rat per day). Testing was carried out in the light phase. Rats were randomly assigned to two treatment groups and received vehicle, n=8 (0.9% saline solution, i.p.) or PCP, n=48 (2 mg/kg, i.p. twice daily for 7-days). On the day of testing, rats were randomly assigned to seven treatment groups (n=6-8 per group) to receive an acute treatment with Example 1 (1, 3, 10 and 30 mg/kg, p.o., 1 hour ptt) or vehicle. Example 1 was dissolved in 1% methylcellulose and administered orally (p.o.) in a volume of 5 ml/kg, 1 hour prior to testing. The study was carried out in accordance with the Animals Scientific Procedures Act (UK, 1986) and was approved by the University of Manchester AWERB (Animal Welfare and Ethical Review Body).
Following habituation to the operant chambers, rats were trained to respond for food on an FR1 (Fixed Ratio 1) schedule of reinforcement with both levers active. When responding was stabilised, rats were trained to press either the left or right lever for food delivery and the active lever was varied from day to day. Each session lasted 20 minutes and counts were recorded on each lever. Subsequently the rats were then trained to respond for food according to the position of a visual cue (a lit LED). Half were trained to press the lever under the lit LED in order to receive a food reward, the other half were trained on the opposite contingency (to press the lever under the non-lit LED). The experimental session was terminated following a total of 128 lever presses, which took approximately 30 minutes. Subsequently, rats were trained until they again reached criterion on the opposite contingency.
The day before each reversal learning task session, a full […] operant training session (as described above) was conducted to ensure stable responding. For the reversal learning task animals were first exposed to a 5-minute period during which the contingency (cue position relative to active lever) was the same as for the operant training session. During this period, responses on both correct and incorrect levers were recorded. This part of the session is termed the initial phase. In the subsequent 5-minute period, the contingency was reversed. Responses made on the correct and incorrect levers were again recorded. This second period is termed the reversal phase. At this stage, training ceased and rats were treated with PCP (2 mg/kg, i.p. or vehicle 0.9% saline, i.p.) for 7 days followed by at least a 7-day washout period. Rats were randomized such that all rats within a cage received a different drug treatment.
Data are presented as percent correct response (±S.E.M) with values for the initial and reversal phases are presented for the different drug treatment groups (FIG. 2). The percentage correct response data were used to determine whether there was a significant effect of drug on response accuracy (e.g. that might reflect cognitive dysfunction); Statistical significance was assumed when P<0.05 and was determined using one-way ANOVA in order to detect main effect of drug treatment in the initial and reversal phases.

## CC(C)(C)NC(=O)C1CCN([C@H]2C[C@H]3CC[C@@H](C2)N3c2nc(C(F)(F)F)no2)CC1 [Example 1, N-tert-butyl-1-{(1R,3r,5S)-8-[3-(trifluoromethyl)-1,2,4-oxadiazol-5-yl]-8-azabicyclo[3.2.1]octan-3-yl}piperidine-4-carboxamide]
1.0 mg/kg p.o.
  mean total number of lever presses, Initial phase: 27.4 ± 0.2
  mean total number of lever presses, Reversal phase: 27.5 ± 0.3
3.0 mg/kg p.o.
  mean total number of lever presses, Initial phase: 27.5 ± 0.2
  mean total number of lever presses, Reversal phase: 26.8 ± 0.2
10.0 mg/kg p.o.
  mean total number of lever presses, Initial phase: 27.0 ± 0.3
  mean total number of lever presses, Reversal phase: 26.6 ± 0.5
30.0 mg/kg p.o.
  mean total number of lever presses, Initial phase: 26.4 ± 0.6
  mean total number of lever presses, Reversal phase: 26.6 ± 0.3
